PubChem BioAssay AID1259425 | University of Nebraska Medical Center, 2018

Test: 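Seek colon cancer weak points whose silencing resembles KSR1 loss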 (primary screen)
Cell system: HCT116 human colon cancer cells
Reagents: siRNA pool against human genes, 50 nM siRNA
Measurement: 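After 50 nM siRNA pool, branched-DNA assay measures six marker transcripts per well, minus blank, normalised to the geometric mean of two housekeeping transcripts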
Reading the numbers: BNIP3L mRNA: higher = more BNIP3L transcript after knockdown; NDRG1 mRNA: higher = more NDRG1 transcript after knockdown; BNIP3 mRNA: higher = more BNIP3 transcript after knockdown; ALDOC mRNA: higher = more ALDOC transcript after knockdown; ACSL5 mRNA: higher = more ACSL5 transcript after knockdown
The deposit covers about 14,000 reagents; below is a part drawn at random. Not given: the time to read-out.

gene | BNIP3L mRNA, set 1 | NDRG1 mRNA, set 1 | BNIP3 mRNA, set 1 | ALDOC mRNA, set 1 | ACSL5 mRNA, set 1
TBL1X (GeneID 6907) | 0.175 | 0.107 | 0.317 | 0.0219 | 0.218
PRR4 (GeneID 11272) | 0.13 | 0.0689 | 0.277 | 0.0214 | 0.083
WDCP (GeneID 80304) | 0.135 | 0.115 | 0.329 | 0.0333 | 0.117
VPS52 (GeneID 6293) | 0.0997 | 0.106 | 0.286 | 0.0424 | 0.164
TMEM131 (GeneID 23505) | 0.113 | 0.0978 | 0.257 | 0.00963 | 0.215
LRFN3 (GeneID 79414) | 0.109 | 0.208 | 0.345 | 0.0334 | 0.119
SYN2 (GeneID 6854) | 0.0653 | 0.12 | 0.313 | 0.0252 | 0.108
IDH1 (GeneID 3417) | 0.121 | 0.143 | 0.362 | 0.0182 | 0.0549
DBNDD2 (GeneID 55861) | 0.1 | 0.337 | 0.445 | 0.0648 | 0.123
DEFA1 (GeneID 1667) | 0.0937 | 0.154 | 0.44 | 0.0178 | 0.138
SLC12A8 (GeneID 84561) | 0.16 | 0.482 | 0.232 | 0.0337 | 0.359
PIK3AP1 (GeneID 118788) | 0.0593 | 0.11 | 0.209 | 0.0112 | 0.0927
NFRKB (GeneID 4798) | 0.0844 | 0.0979 | 0.272 | 0.0813 | 0.183
CST8 (GeneID 10047) | 0.113 | 0.178 | 0.338 | 0.059 | 0.102
NOX4 (GeneID 50507) | 0.09 | 0.319 | 0.239 | 0.00916 | 0.242
MYBPC3 (GeneID 4607) | 0.1 | 0.172 | 0.213 | 0.0297 | 0.0914
MTHFSD (GeneID 64779) | 0.136 | 0.146 | 0.175 | 0.0171 | 0.181
NMUR2 (GeneID 56923) | 0.197 | 0.204 | 0.293 | 0.0434 | 0.151
DCAF13 (GeneID 25879) | 0.0957 | 0.113 | 0.562 | 0.0167 | 0.121
ZNF606 (GeneID 80095) | 0.137 | 0.0569 | 0.36 | 0.0606 | 0.107

Not a retest: an excerpt of the list.
gene | BNIP3L mRNA, set 1 | NDRG1 mRNA, set 1 | BNIP3 mRNA, set 1 | ALDOC mRNA, set 1 | ACSL5 mRNA, set 1
NFRKB (GeneID 4798) | 0.0844 | 0.0979 | 0.272 | 0.0813 | 0.183
CST8 (GeneID 10047) | 0.113 | 0.178 | 0.338 | 0.059 | 0.102
NOX4 (GeneID 50507) | 0.09 | 0.319 | 0.239 | 0.00916 | 0.242
